The list shows only some results of the screen, not a fair sample: it is rich in T/C values a quarter to a half above the control, in often repeated tests (any T/C) and in doses without a T/C. Other doses and runs of a compound stand elsewhere. T/C gives the treated animals as a percentage of the vehicle group. Some entries give survivors of the animals treated and no T/C: the source files T/C as zero there, which appears to mark a toxic dose or a test without result, not a measured value. Some survivor counts are full or nearly so, which does not show that the dose was tolerated: survival well below the control is almost never listed, so the zero probably covers shortened survival too. Counts of survivors are from the toxicity check (mostly the fifth day) where no day follows; animals may have died later. Schedule codes are those of the source, taken here to give the interval after Q, in days (D) or hours (H), and the number of doses after X. For survival time, the PubChem record calls one and a half times the control and up active, and a quarter to a half above the control has no call in these data; cut-offs in other NCI protocols can differ. Some T/C values carry the count of animals alive at the toxicity check (mostly the fifth day); without a count, all were alive then. Some entries hold several experiments; the results are listed from low to high. Marks such as (2×) count equal records among those shown.
Test system: BDF1 mice, P388 leukemia ip, median survival T/C
Assay: NCI In Vivo Anticancer Drug Screen. Data for tumor model P388 Leukemia (intraperitoneal) in B6D2F1 (BDF1) mice
Conditions: T/C endpoint: median survival time, higher T/C = longer survival
Outline: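 Compound-treated tumour-bearing mice were compared with vehicle-treated controls. Survival was recorded, and the value is the treated-group measurement divided by the control-group measurement (T/C).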

With `CC(CN1CC(=O)NC(=O)C1)N1CC(=O)NC(=O)C1` (centres undefined) the T/C (dose: 7.5 mg/kg/injection, schedule: Q01DX010 (oral), vehicle: saline with Tween-80) was 127 % of control, the T/C (dose: 12.5 mg/kg/injection, schedule: Q01DX005 (ip), vehicle: Klucel (hydroxypropylcellulose) (HPC), evaluated on day 30) was 108, 110, 114, 119, 120, 121, 124, 126, 128, 134, 138, 139 (2×), 142 (2×), 148, 149 (2×), 151 (2×), 152, 155 (3×), 156, 157, 158, 160, 166, 169, 272 % of control and the T/C (dose: 12.5 mg/kg/injection, schedule: Q01DX005 (ip), vehicle: Klucel (hydroxypropylcellulose) (HPC), evaluated on day 35) was 113 [2 of 3 alive] and 155 % of control. The T/C (dose: 12.5 mg/kg/injection, schedule: Q01DX009 (ip), vehicle: Klucel (hydroxypropylcellulose) (HPC), evaluated on day 30) was 102, 111, 118, 119 [5 of 6 alive], 128 [2 of 3 alive], 130, 131, 132, 134, 138, 140, 141, 144 (2×), 145, 147, 149, 151 (2×), 152 (2×), 154, 156, 157, 159, 160, 163, 165 (2×), 178, 185, 189, 194, 221, 263 % of control, the T/C (dose: 12.5 mg/kg/injection, schedule: Q01DX009 (ip), vehicle: Klucel (hydroxypropylcellulose) (HPC), evaluated on day 35) was 149 % of control and the T/C (dose: 25.0 mg/kg/injection, schedule: Q01DX005 (ip), vehicle: Klucel (hydroxypropylcellulose) (HPC), evaluated on day 30) was 116, 117, 125, 127, 128 (2×), 129, 131, 133, 137 (2×), 138, 139 (3×), 145, 150, 155, 156 (2×), 158 [5 of 6 alive], 159, 160 (4×), 166, 168, 171 (2×), 174 % of control. The T/C (dose: 25.0 mg/kg/injection, schedule: Q01DX005 (ip), vehicle: Klucel (hydroxypropylcellulose) (HPC), evaluated on day 35) was 147 and 158 % of control, the T/C (dose: 25.0 mg/kg/injection, schedule: Q01DX009 (ip), vehicle: Klucel (hydroxypropylcellulose) (HPC), evaluated on day 30) was 94, 105 [5 of 6 alive], 118, 122, 135, 143, 144, 147, 149, 161, 167, 169 (3×), 171 (3×), 172, 176 (2×), 177, 179, 182, 183 [2 of 3 alive], 185, 188 (2×), 191, 196 (3×), 203, 226, 241 % of control and the T/C (dose: 25.0 mg/kg/injection, schedule: Q01DX009 (ip), vehicle: Klucel (hydroxypropylcellulose) (HPC), evaluated on day 35) was 181 % of control. For the same molecule, the survivor count (dose: 25.0 mg/kg/injection, schedule: Q01DX009 (ip), vehicle: Klucel (hydroxypropylcellulose) (HPC)) was 3 of 3, the T/C (dose: 25.0 mg/kg/injection, schedule: Q01DX009 (ip), vehicle: steroid suspending solution) was 135 % of control and the T/C (dose: 30.0 mg/kg/injection, schedule: Q01DX010 (ip), vehicle: saline) was 133 % of control. The survivor count (dose: 30.0 mg/kg/injection, schedule: Q01DX010 (oral), vehicle: saline with Tween-80) was 6 of 6, the T/C (dose: 37.5 mg/kg/injection, schedule: Q04DX002 (ip), vehicle: Klucel (hydroxypropylcellulose) (HPC), evaluated on day 30) was 90, 98, 102, 103 (2×), 104 (2×), 105, 107, 109, 110 (2×), 112, 114, 115 (2×), 116, 117, 119 (4×), 120 (2×), 121, 131, 144, 189 % of control and the T/C (dose: 37.5 mg/kg/injection, schedule: Q04DX002 (ip), vehicle: Klucel (hydroxypropylcellulose) (HPC), evaluated on day 35) was 102 % of control [5 of 6 alive]. The survivor count (dose: 37.5 mg/kg/injection, schedule: Q04DX002 (ip), vehicle: Klucel (hydroxypropylcellulose) (HPC)) was 3 of 3, the T/C (dose: 37.5 mg/kg/injection, schedule: Q04DX003 (ip), vehicle: Klucel (hydroxypropylcellulose) (HPC), evaluated on day 30) was 86, 100, 104 (2×), 108 (2×), 109, 112 (2×), 113 (2×), 116, 117, 118, 119, 120 (5×), 123 (3×), 126 (2×), 129, 130, 131, 135, 137, 255 % of control and the T/C (dose: 37.5 mg/kg/injection, schedule: Q04DX003 (ip), vehicle: Klucel (hydroxypropylcellulose) (HPC), evaluated on day 35) was 119 % of control. The T/C (dose: 50.0 mg/kg/injection, schedule: Q01DX001 (ip), vehicle: Klucel (hydroxypropylcellulose) (HPC)) was 92, 100, 104, 107, 108 (4×), 109 (4×), 112, 113 (2×), 114 (2×), 115, 117, 118, 119, 120, 121 (2×), 125, 126, 129, 147 (2×), 158 % of control, the T/C (dose: 50.0 mg/kg/injection, schedule: Q01DX005 (ip), vehicle: Klucel (hydroxypropylcellulose) (HPC), evaluated on day 30) was 116, 126, 133 (2×), 136, 137, 139, 140, 141 (3×), 142, 142 [5 of 6 alive], 148 (3×), 149, 157, 158, 161, 162 (3×), 168, 169 (2×), 174, 178, 189, 191, 197 % of control and the T/C (dose: 50.0 mg/kg/injection, schedule: Q01DX005 (ip), vehicle: Klucel (hydroxypropylcellulose) (HPC), evaluated on day 35) was 121 and 177 % of control. The T/C (dose: 50.0 mg/kg/injection, schedule: Q01DX009 (ip), vehicle: Klucel (hydroxypropylcellulose) (HPC), evaluated on day 30) was 88, 90, 92, 110, 113, 113 [5 of 6 alive], 114 [5 of 6 alive], 133, 150, 153 [2 of 3 alive], 161, 165, 173, 176, 177, 178, 179 (2×), 180, 181, 182, 185 (2×), 187, 188, 189, 200, 202, 203, 206, 207, 214 (2×), 218, 231 % of control, the T/C (dose: 50.0 mg/kg/injection, schedule: Q01DX009 (ip), vehicle: Klucel (hydroxypropylcellulose) (HPC), evaluated on day 35) was 103 % of control [5 of 6 alive] and the T/C (dose: 50.0 mg/kg/injection, schedule: Q03HX024 (ip), vehicle: steroid suspending solution) was 135 % of control. The T/C (dose: 50.0 mg/kg/injection, schedule: Q04DX002 (ip), vehicle: Klucel (hydroxypropylcellulose) (HPC)) was 128 % of control, the T/C (dose: 60.0 mg/kg/injection, schedule: Q01DX010 (ip), vehicle: saline) was 128 % of control and the T/C (dose: 75.0 mg/kg/injection, schedule: Q04DX002 (ip), vehicle: Klucel (hydroxypropylcellulose) (HPC), evaluated on day 30) was 91, 102, 103, 104, 106, 107, 108 (2×), 115, 116, 118, 119 (4×), 120, 121, 122 (2×), 125, 126, 128 (2×), 129, 131 (2×), 135, 137 % of control. For the same molecule, the T/C (dose: 75.0 mg/kg/injection, schedule: Q04DX002 (ip), vehicle: Klucel (hydroxypropylcellulose) (HPC), evaluated on day 35) was 109 % of control, the survivor count (dose: 75.0 mg/kg/injection, schedule: Q04DX002 (ip), vehicle: Klucel (hydroxypropylcellulose) (HPC)) was 3 of 3 and the T/C (dose: 75.0 mg/kg/injection, schedule: Q04DX003 (ip), vehicle: Klucel (hydroxypropylcellulose) (HPC), evaluated on day 30) was 95, 104 (2×), 115 (2×), 116 (2×), 117, 120, 121 (4×), 122, 123 (2×), 125, 126, 128, 129 (2×), 130, 131, 133, 137, 145, 147, 148 (2×), 157 % of control. For the same molecule, the T/C (dose: 75.0 mg/kg/injection, schedule: Q04DX003 (ip), vehicle: Klucel (hydroxypropylcellulose) (HPC), evaluated on day 35) was 111 % of control, the survivor count (dose: 75.0 mg/kg/injection, schedule: Q04DX003 (ip), vehicle: Klucel (hydroxypropylcellulose) (HPC)) was 5 of 6 and the T/C (dose: 86.4 mg/kg/injection, schedule: Q04DX003 (ip), vehicle: Klucel (hydroxypropylcellulose) (HPC)) was 135 % of control. For the same molecule, the T/C (dose: 100.0 mg/kg/injection, schedule: Q01DX001 (ip), vehicle: Klucel (hydroxypropylcellulose) (HPC)) was 95, 104, 108, 109, 110 (4×), 111 (3×), 111 [5 of 6 alive], 113, 114, 115 (5×), 117, 118, 119, 120 (2×), 123, 127, 128, 129 (2×), 140 % of control.

— PubChem BioAssay AID328 (DTP/NCI, 2004)
